Reference: paper PMC5599684
Results are given in words; binding and its absence hold for the method and conditions named. Binding seen in cells or lysates may run through a third protein. Some binding calls cover weakened binding; strength is not graded here. Sequences can lack the tags named with a protein.

Molecular target: T1, ^GSTDpb11 (construct of Fig. S1A, not told) (S. cerevisiae) (UniProt P47027)
T1 sequence: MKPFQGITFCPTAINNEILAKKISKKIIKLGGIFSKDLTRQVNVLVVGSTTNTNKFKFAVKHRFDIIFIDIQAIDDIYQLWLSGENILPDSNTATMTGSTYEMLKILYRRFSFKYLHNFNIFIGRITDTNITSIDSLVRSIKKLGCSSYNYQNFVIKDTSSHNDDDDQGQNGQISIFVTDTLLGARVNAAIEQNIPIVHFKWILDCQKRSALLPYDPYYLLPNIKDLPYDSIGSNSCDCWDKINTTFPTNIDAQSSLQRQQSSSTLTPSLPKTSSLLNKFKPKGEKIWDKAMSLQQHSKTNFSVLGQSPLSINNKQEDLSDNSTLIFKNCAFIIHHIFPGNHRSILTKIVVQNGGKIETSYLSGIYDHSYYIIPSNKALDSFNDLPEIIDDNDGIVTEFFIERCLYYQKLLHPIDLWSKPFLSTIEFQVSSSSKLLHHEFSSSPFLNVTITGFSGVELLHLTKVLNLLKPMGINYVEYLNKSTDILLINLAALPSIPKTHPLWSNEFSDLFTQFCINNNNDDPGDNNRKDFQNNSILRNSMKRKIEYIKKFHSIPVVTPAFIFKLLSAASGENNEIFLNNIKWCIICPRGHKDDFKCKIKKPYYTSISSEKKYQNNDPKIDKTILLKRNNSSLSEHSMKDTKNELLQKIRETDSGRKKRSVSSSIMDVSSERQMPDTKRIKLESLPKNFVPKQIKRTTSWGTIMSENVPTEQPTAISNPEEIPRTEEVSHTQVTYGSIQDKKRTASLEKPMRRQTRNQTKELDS
Assay: pull-down; GST-Dpb11 immobilised on glutathione sepharose 4B, incubated 1 hour at 4 °C with ammonium sulphate-precipitated (57%) yeast cell extracts in 200 mM KOAc, 100 mM Hepes pH 7.6, 10% glycerol, 0.02% NP-40 with phosphatase and protease inhibitors; cells arrested in G1 (α-factor) or M phase (nocodazole), phleomycin- or mock-treated, or MMS-treated (Fig. S1A); only the target purified

- binding: binds
B1: Rad9^9myc (protein, UniProt P14737 1-1309)
chain: MSGQLVQWKSSPDRVTQSAIKEALHSPLADGDMNEMNVPVDPLENKVNSTNIIEGSPKANPNPVKFMNTSEIFQKSLGLLDESPRHDDELNIEVGDNDRPNANILHNERTPDLDRIANFFKSNRTPGKENLLTKYQSSDLEDTPLMLRKKMTFQTPTDPLEQKTFKKLKSDTGFCYYGEQNDGEENASLEVTEADATFVQMAERSADNYDCALEGIVTPKRYKDELSKSGGMQDERVQKTQIMISAESPNSISSYDKNKITGNGRTTRNVNKVFNNNEDNIGAIEEKNPVKKKSENYSSDDLRERNNQIIQSNESEEINELEKNLNVSGRENDVNNLDIDINSAVSGTPSRNNAEEEMYSSESVNNREPSKKWIFRYSKDKTENNSNRSTQIVNNPRTQEMPLDSISIDTQPLSKSFNTETNNELETQIIVSSLSQGISAQKGPVFHSTGQTEEIKTQIINSPEQNALNATFETPVTLSRINFEPILEVPETSSPSKNTMSKPSNSSPIPKEKDTFNIHEREVETNNVFSNDIQNSSNAATRDDIIIAGSSDFNEQKEITDRIYLQLSGKQISDSGSDETERMSPNELDTKKESTIMSEVELTQELPEVEEQQDLQTSPKKLVVEEETLMEIKKSKGNSLQLHDDNKECNSDKQDGTESLDVALIEHESKGQSSELQKNLMQLFPSESQEIIQNRRTIKRRQKDTIEIGEEEENRSTKTSPTKHLKRNSDLDAASIKREPSCSITIQTGETGSGKDSKEQSYVFPEGIRTADNSFLSKDDIIFGNAVWCQYTWNYKFYPGILLEVDTNQDGCWIYFETGRSLTKDEDIYYLDIRIGDAVTFDGNEYVVVGLECRSHDLNIIRCIRGYDTVHLKKKNASGLLGKRTLIKALSSISLDLSEWAKRAKIILEDNEKNKGDAYRYLRHPIRGRKSMTNVLSPKKHTDDEKDINTHTEVYNNEIESSSEKKEIVKKDSRDALAEHAGAPSLLFSSGEIRTGNVFDKCIFVLTSLFENREELRQTIESQGGTVIESGFSTLFNFTHPLAKSLVNKGNTDNIRELALKLAWKPHSLFADCRFACLITKRHLRSLKYLETLALGWPTLHWKFISACIEKKRIVPHLIYQYLLPSGESFRLSLDSPSKGGIIKSNNIFSFYTQFLRGSNLRDQICGVKKMLNDYIVIVWGRSELDSFVKFAFACLSAGRMLTIDLPNIDVDDTEPLLNALDSLVPRIGSELSNRKLKFLIYANENNGKSQMKLLERLRSQISLKFKKFNYIFHTESKEWLIQTIINEDTGFHDDITDNDIYNTISEVR
